Article PMC7918733, “Biological Profiling of Semisynthetic C19-Functionalized Ferruginol and Sugiol Analogues” (Antibiotics, 2021)
Where two headings read alike, the source gives them in different places.

How the values were obtained:
L. infantum amastigotes = assay: Intracellular amastigote assay (fluorometric test); format: cell-based; settings: SI = CC50/IC50 (J774)
[1] = system: L. amazonensis amastigotes; assay: Intracellular amastigote assay (fluorometric test); format: cell-based; settings: SI = CC50/IC50 (J774)
[2] = system: L. infantum promastigotes; assay: Antileishmanial in vitro promastigote assay; settings: SI = CC50/IC50 (J774)
[3] = system: L. donovani promastigotes; assay: Antileishmanial in vitro promastigote assay; settings: SI = CC50/IC50 (J774)
[4] = system: L. amazonensis promastigotes; assay: Antileishmanial in vitro promastigote assay; settings: SI = CC50/IC50 (J774)
[5] = system: L. guyanensis promastigotes; assay: Antileishmanial in vitro promastigote assay; settings: SI = CC50/IC50 (J774)
[6] = system: L. donovani promastigotes; settings: cited from earlier work
P. falciparum 3D7 strain = assay: Antiplasmodial DNA stain-based growth assay; format: cell-based, Plasmodium falciparum; settings: EC50 lower values of cytotoxic activity/EC50 antimalarial activity
Procedure: (§1) Assays were performed by using previously described DNA stain-based assay and methods, including cytotoxicity assays.

[7] = system: L. infantum promastigotes; parameters: method as in PMID 30840453; settings: C18-congeners, ratio CC50 / IC50; cited from earlier work
[8] = system: L. amazonensis promastigotes; parameters: method as in PMID 30840453; settings: C18-congeners, ratio CC50 / IC50; cited from earlier work
[9] = system: L. guyanensis promastigotes; parameters: method as in PMID 30840453; settings: C18-congeners, ratio CC50 / IC50; cited from earlier work
P. falciparum K1 strain = assay: Antiplasmodial DNA stain-based growth assay; format: cell-based, Plasmodium falciparum; settings: EC50 lower values of cytotoxic activity/EC50 antimalarial activity
Procedure: as §1

Row | Structure (SMILES) | L. infantum SI (L. infantum amastigotes) | L. amazonensis SI [1] | L. infantum SI [2] | L. donovani SI [3] | L. amazonensis SI [4] | L. guyanensis SI [5] | P. falciparum K1 SI (P. falciparum K1 strain) | other results
1 | CC(C)c1cc2c(cc1O)C1(C)CCCC(C)(C(=O)O)C1CC2=O (single isomer, unassigned; (+)) [Compound 8a, (+)-4-epi-liquiditerpenoic acid A] | >9.9 | >9.3 | >2.0 | >2.4 | >2.1 | > 67 | – | –
2 | CC(C)c1cc2c(cc1O)[C@@]1(C)CCCC(C)(C)[C@@H]1CC2 [Compound 1, ferruginol] | – | – | – | – | – | – | – | L. donovani SI ([6]; versus Vero): >1.4
3 | COC(=O)[C@@]1(C)CCC[C@]2(C)c3cc(O)c(C(C)C)cc3CC[C@@H]12 [Compound 12] | – | – | – | – | – | – | – | P. falciparum 3D7 SI (P. falciparum 3D7 strain): 5.3
4 | CC(C)c1cc2c(cc1O)[C@@]1(C)CCC[C@](C)(C(=O)O)[C@@H]1CC2 [Compound 13, lambertic acid] | >11.3 | > 24.7 | 7.5 | 17.0 | 4.2 | 12.2 | – | –
5 | CC(C)c1cc2c(cc1O)[C@@]1(C)CCC[C@@](C)(C(=O)O)C1CC2 (stereo partly shown) [Compound 13b, 12-hydroxydehydroabietic acid] | – | – | – | – | – | – | – | L. infantum SI [7]: 2.0; L. donovani SI ([6]; C18-congeners, ratio CC50 / IC50): 1.5; L. amazonensis SI [8]: 1.6; L. guyanensis SI [9]: 1.2
6 | CC(C)c1cc2c(cc1O)[C@@]1(C)CCC[C@](C)(CO)[C@@H]1CC2 [Compound 14, 19-hydroxyferruginol] | – | – | – | – | – | – | 2.2 | –
7 | CC(C)c1cc2c(cc1O)[C@@]1(C)CCC[C@](C)(CO)[C@@H]1CC2=O [Compound 15, 19-hydroxysugiol] | – | – | – | – | – | – | 2.6 | –
8 | COC(=O)[C@@]1(C)CCC[C@]2(C)c3cc(O)c(C(C)C)cc3C(=O)C[C@@H]12 [Compound 16] | >12.1 | >12.4 | >19.8 | >16.9 | > 23.5 | > 35.7 | 6.4 | P. falciparum 3D7 SI (P. falciparum 3D7 strain): 5.2
